The list shows a part of the results.

Chains of the proteins cited; added tags and fusions are not shown. Lines headed by an entry give the natural chain unless they say otherwise; changes in a name come on top.
UniProt Q9NVW2: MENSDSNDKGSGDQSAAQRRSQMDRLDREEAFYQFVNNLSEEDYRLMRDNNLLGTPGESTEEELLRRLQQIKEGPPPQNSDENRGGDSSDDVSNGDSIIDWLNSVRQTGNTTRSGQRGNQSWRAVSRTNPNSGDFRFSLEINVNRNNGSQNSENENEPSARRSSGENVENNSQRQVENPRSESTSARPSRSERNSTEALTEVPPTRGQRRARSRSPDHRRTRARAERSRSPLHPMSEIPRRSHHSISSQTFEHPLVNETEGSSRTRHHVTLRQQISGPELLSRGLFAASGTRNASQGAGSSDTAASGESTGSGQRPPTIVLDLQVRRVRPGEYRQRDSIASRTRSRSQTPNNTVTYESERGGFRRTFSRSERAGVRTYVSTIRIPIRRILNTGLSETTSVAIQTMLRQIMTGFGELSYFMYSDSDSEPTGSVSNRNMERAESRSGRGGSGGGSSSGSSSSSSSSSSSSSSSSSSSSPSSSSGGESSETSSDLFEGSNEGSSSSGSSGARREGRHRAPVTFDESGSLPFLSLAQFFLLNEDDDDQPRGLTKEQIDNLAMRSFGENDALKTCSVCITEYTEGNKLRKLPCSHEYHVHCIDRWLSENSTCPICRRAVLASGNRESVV
UniProt Q9Y580: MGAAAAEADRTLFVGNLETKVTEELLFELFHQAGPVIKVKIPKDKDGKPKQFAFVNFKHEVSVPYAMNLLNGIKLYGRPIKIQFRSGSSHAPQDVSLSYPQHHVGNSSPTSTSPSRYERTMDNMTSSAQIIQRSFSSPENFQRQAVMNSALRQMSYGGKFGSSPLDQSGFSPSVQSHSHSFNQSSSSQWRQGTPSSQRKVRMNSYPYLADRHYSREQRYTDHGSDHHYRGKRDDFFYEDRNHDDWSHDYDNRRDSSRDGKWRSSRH
UniProt P35251: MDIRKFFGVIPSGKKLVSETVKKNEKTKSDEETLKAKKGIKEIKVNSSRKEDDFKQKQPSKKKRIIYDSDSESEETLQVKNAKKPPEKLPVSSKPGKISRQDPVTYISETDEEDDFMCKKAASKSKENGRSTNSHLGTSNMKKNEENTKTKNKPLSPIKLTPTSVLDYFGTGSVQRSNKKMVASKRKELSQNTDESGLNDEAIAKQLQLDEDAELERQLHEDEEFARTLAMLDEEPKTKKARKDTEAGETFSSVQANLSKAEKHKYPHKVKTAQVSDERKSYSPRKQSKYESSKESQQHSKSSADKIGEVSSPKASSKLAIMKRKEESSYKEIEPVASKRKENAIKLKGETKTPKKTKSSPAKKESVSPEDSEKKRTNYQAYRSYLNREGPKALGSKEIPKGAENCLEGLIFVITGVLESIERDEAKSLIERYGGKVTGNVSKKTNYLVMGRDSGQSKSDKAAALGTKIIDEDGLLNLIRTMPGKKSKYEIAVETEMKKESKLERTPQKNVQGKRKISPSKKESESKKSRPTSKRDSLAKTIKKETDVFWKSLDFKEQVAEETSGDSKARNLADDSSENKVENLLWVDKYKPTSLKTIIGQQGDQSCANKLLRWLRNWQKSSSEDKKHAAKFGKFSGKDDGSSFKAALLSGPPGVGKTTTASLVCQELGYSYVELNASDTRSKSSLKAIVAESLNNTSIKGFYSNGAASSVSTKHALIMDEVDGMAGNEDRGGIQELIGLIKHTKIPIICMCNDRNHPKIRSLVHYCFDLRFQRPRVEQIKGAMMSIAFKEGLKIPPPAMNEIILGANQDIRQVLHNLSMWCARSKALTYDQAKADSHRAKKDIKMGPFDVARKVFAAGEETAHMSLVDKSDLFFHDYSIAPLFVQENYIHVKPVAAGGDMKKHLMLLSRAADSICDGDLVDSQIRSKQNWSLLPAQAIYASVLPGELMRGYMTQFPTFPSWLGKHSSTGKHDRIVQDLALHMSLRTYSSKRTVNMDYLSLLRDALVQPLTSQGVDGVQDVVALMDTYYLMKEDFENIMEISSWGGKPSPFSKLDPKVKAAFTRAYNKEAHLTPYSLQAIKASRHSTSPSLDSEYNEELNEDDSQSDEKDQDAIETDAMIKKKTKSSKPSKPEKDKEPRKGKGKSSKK
UniProt P48380: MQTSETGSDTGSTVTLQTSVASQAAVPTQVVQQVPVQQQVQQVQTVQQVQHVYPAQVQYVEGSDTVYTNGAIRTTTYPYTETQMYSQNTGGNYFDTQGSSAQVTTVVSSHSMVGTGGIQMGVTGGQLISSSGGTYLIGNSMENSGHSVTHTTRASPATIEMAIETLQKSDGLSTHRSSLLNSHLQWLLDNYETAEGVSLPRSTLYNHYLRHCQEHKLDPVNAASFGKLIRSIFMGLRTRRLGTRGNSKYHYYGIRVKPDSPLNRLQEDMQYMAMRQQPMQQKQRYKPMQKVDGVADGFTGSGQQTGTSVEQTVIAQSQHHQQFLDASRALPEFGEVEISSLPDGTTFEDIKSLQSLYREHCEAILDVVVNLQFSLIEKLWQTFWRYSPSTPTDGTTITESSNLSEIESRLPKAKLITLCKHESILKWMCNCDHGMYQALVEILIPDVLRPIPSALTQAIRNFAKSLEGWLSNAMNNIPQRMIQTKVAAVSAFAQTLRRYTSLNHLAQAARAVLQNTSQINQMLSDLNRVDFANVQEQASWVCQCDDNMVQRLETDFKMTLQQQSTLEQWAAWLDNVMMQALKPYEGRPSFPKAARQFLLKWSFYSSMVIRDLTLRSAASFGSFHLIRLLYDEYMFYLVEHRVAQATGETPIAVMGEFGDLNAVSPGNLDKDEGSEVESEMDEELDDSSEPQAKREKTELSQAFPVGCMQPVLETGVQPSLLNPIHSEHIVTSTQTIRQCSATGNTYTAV
UniProt Q5UIP0: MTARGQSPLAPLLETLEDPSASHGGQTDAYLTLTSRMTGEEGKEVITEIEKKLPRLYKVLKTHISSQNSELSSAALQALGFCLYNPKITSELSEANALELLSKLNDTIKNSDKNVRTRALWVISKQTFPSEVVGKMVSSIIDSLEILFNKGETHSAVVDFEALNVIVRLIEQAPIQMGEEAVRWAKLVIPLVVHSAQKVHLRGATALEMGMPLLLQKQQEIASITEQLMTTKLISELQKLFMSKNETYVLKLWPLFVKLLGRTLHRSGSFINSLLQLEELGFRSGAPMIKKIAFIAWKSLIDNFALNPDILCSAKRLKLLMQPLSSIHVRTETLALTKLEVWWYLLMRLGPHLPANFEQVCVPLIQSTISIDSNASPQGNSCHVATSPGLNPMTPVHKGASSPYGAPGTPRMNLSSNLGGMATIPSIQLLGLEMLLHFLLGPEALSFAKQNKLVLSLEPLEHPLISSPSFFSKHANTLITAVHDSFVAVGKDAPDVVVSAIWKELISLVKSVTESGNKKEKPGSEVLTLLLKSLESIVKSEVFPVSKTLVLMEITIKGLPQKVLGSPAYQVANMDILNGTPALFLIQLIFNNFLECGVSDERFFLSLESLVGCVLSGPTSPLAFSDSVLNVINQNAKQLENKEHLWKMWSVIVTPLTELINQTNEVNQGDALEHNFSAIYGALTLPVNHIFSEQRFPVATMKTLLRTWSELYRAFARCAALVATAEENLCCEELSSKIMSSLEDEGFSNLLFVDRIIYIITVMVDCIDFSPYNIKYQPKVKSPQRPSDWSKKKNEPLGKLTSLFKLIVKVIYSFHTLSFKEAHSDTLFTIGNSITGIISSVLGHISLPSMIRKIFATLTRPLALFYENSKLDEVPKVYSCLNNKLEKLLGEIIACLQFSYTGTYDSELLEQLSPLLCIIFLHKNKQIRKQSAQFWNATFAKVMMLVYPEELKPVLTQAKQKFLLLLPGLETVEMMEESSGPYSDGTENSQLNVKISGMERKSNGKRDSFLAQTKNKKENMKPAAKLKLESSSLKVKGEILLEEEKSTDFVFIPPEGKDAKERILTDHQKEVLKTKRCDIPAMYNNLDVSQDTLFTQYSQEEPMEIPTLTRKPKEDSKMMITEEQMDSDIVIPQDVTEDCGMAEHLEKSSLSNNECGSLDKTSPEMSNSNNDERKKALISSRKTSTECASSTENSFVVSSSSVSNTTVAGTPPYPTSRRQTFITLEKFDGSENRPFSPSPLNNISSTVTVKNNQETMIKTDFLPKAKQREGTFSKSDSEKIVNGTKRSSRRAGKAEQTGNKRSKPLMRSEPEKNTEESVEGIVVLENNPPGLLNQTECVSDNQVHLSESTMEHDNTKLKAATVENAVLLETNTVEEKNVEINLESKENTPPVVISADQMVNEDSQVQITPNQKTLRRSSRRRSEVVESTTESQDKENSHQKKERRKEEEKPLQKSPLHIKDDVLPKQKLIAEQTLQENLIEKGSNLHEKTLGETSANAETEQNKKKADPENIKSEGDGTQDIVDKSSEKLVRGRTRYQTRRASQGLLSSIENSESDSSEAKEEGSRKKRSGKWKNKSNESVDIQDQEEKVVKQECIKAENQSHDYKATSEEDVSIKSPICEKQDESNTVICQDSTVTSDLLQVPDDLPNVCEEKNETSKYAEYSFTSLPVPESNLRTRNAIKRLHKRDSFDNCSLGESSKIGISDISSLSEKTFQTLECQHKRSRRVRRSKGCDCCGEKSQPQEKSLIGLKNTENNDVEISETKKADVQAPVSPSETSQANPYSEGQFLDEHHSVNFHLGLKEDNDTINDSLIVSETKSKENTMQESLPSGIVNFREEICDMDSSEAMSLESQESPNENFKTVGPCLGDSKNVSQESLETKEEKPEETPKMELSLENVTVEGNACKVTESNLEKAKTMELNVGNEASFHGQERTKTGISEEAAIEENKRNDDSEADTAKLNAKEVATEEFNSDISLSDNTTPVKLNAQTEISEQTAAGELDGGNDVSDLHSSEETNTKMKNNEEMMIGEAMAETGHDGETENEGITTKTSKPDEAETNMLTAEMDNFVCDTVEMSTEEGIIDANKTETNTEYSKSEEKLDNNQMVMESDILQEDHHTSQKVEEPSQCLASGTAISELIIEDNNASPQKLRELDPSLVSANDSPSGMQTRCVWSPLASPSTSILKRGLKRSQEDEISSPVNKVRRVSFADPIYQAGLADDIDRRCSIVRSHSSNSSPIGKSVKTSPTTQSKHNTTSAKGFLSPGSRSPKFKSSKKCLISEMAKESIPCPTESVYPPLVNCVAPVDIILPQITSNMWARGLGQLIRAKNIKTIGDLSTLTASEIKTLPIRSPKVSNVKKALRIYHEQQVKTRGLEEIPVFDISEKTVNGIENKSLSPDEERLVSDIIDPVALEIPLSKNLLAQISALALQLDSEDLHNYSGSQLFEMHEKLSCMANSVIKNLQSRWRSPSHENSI
UniProt Q05823: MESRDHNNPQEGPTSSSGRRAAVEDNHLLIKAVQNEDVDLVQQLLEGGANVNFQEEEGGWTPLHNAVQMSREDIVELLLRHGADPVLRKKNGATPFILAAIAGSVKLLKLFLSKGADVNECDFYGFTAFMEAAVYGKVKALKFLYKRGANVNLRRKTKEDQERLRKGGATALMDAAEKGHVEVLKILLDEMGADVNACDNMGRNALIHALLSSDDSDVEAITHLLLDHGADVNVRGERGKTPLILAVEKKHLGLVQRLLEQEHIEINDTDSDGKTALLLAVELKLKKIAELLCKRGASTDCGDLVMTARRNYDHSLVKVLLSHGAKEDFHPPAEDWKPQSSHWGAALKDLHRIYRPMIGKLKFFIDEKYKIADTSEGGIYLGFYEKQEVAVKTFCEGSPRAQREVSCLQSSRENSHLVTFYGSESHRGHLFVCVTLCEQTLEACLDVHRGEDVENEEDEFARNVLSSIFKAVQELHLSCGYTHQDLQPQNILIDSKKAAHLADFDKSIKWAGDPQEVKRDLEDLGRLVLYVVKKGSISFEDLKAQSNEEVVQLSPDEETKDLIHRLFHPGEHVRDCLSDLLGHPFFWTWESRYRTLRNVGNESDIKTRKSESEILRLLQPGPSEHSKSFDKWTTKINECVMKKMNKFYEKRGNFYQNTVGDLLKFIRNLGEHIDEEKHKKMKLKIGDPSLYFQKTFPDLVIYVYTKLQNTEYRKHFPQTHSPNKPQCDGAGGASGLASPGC
UniProt Q96LZ7: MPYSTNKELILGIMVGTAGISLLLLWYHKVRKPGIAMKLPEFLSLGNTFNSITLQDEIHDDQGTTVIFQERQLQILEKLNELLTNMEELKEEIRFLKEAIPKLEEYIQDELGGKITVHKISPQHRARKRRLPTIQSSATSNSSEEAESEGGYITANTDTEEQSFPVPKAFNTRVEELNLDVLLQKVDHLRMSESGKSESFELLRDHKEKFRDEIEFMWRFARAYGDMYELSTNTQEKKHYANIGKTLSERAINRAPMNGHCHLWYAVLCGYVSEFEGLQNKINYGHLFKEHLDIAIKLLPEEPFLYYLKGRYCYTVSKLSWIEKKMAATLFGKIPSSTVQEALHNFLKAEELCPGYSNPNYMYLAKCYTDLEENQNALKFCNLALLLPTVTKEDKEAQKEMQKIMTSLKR
UniProt Q9Y3C5: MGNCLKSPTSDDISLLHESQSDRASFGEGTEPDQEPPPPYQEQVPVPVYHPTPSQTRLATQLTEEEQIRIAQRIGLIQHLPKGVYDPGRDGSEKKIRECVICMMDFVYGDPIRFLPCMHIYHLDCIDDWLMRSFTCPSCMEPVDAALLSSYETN

Compound in the first experiment: CC1=C(C=C(C=C1)NC(=O)C2=CC(=CC=C2)C(C)(C)C#N)NC3=CC4=C(C=C3)N=CN(C4=O)C
Briefly: log2 fold change, soluble protein after heating vs DMSO (PISA); higher = thermal stabilisation; K562 cells, 10 uM, 30 min; active = over 0.2 and 3.5 SD of the protein, either way, in both replicates (recomputed). A digest of the protocol: (§1)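 K562 cells at 2×10^6 cells/mL were treated for 30 min with 10 μM compound, and aliquots were heated for 3 min over 48°C-58°C before pooling. Extraction used PBS with 0.5% NP-40 at 4°C, and soluble protein was the supernatant after 21,000xg for 90 min, measured by TMTpro 16plex LC-MS/MS with channel sums equalised. Thermal stability values, relative to control samples and from duplicates, are log2 fold changes.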
In the case of RHOXF2B (UniProt P0C7M4), the log2 fold change is inactive: -0.17. Same read-out and setting: then RLIM (UniProt Q9NVW2), with inactive: 0.1; and RBM6 (UniProt P78332), with inactive: -0.009. Still for that read-out and setting: then RCBTB1 (UniProt Q8NDN9), with inactive: 0.168. Same read-out and setting: then RBM7 (UniProt Q9Y580), with inactive: -0.307.

As to RGN (UniProt Q15493), the log2 fold change is inactive: 0.049. Same read-out and setting: then RICTOR isoform 3 (UniProt Q6R327), with inactive: -0.09.

Consider RELCH isoform 2 (UniProt Q9P260), for which the log2 fold change was inactive: 0.006. Same read-out and setting: under RFC1 (UniProt P35251) stands inactive: 0.063.

On to RFX7 (UniProt Q2KHR2), for which the log2 fold change was inactive: 0.177. Same read-out and setting: then RFX3 (UniProt P48380), with inactive: -0.323. RFWD3 (UniProt Q6PCD5): the log2 fold change was inactive: -0.08.

In the case of RILPL1 (UniProt Q5EBL4), the log2 fold change was inactive: 0.014. On the same count and under the same terms, then RNF168 (UniProt Q8IYW5), with inactive: 0.171; and RCE1 (UniProt Q9Y256), with inactive: 0.053.

Take RGP1 (UniProt Q92546): the log2 fold change is inactive: -0.039. The same measure, in the same setting: under RNF138 (UniProt Q8WVD3) stands inactive: 0.036; under RNF166 (UniProt Q96A37), inactive: -0.037. On to RIF1 (UniProt Q5UIP0), for which the log2 fold change was inactive: 0.198.

Compound in another experiment: CC1=C(C=C(C=C1)NC(=O)C2=CC(=CC=C2)N(C)C)NC(=O)C3=CC=C(C=C3)O
The experiment is described as above. A digest of the protocol: as §1
Take RLIM (UniProt Q9NVW2): the log2 fold change is inactive: 0.

Turning to RGS14 (UniProt O43566), the log2 fold change was inactive: 0.152. Still for that read-out and setting: under RIPOR1 isoform 4 (UniProt Q6ZS17) stands inactive: -0.213; under RNASEL (UniProt Q05823), inactive: 0.052. Same read-out and setting: then RNF185 (UniProt Q96GF1), with inactive: -0.055.

On to RBM7 (UniProt Q9Y580), for which the log2 fold change is inactive: -0.167. Same read-out and setting: under RMDN2 isoform 2 (UniProt Q96LZ7) stands inactive: -0.022. The same measure, in the same setting: then RELCH isoform 2 (UniProt Q9P260), with inactive: -0.089; and RFC1 (UniProt P35251), with inactive: -0.081; and RMI2 (UniProt Q96E14), with inactive: -0.017. With RILPL1 (UniProt Q5EBL4), the log2 fold change is inactive: 0.109. As for RNF11 (UniProt Q9Y3C5), the log2 fold change was inactive: -0.016.

For the target RNF168 (UniProt Q8IYW5), the log2 fold change was inactive: -0.206.

Take RCE1 (UniProt Q9Y256): the log2 fold change is inactive: 0.005. The same measure, in the same setting: then RGP1 (UniProt Q92546), with inactive: -0.017; and RNF166 (UniProt Q96A37), with inactive: 0.006.

In the case of RCL1 (UniProt Q5VZU2), the log2 fold change is inactive: 0.004. On to RIF1 (UniProt Q5UIP0), for which the log2 fold change is inactive: -0.069.

(Values after the supplement of paper PMC10849652.)
